{"source": "PubChem BioAssay AID504764, Drosophila RNAi Screening Center | 2011", "screen": "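Genome-wide screen for regulators of Notch-driven gene expression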 (primary screen)", "cell system": "Drosophila Kc167 cells", "reagent": "long dsRNA against Drosophila genes", "duration": "about 5 days (4 days dsRNA, then 24 h after transfection)", "treatment": "transfection of constitutively active membrane-tethered Notch lacking the extracellular domain, read 24 h later", "detection": "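Light from a Notch-responsive E(spl)m3 luciferase reporter under active Notch, with control-promoter and no-Notch reporter wells to normalise; raw counts from paired wells a and b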", "direction": "induced reporter light, run 1, well a and induced reporter light, run 1, well b: higher = more light from the Notch target reporter with active Notch; control promoter light, run 1, well a and control promoter light, run 1, well b: higher = more light from the viral control promoter (cell number, transfection, viability); uninduced reporter light, run 1, well a: higher = more light from the Notch target reporter without active Notch", "active means": "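Wells with low control signal or poorly matching duplicates excluded; duplicates averaged; per source plate, z beyond ±2 for induced/control log2 ratio or beyond ±1.8 for induced/uninduced marks a hit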", "calls": "active = modifier hit (raised or lowered Notch signal); inactive = not a hit", "note": "In all, the deposit lists about 22,000 reagents; shown is a random part of those that have a named target and a result. Of all reagents, 403 (1.9%) were called active. 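Unnormalised raw counts per well; ratio z-scores behind the hit calls and whether each hit raises or lowers signal are not deposited.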 The numbers tell different reagents against one gene apart. Not given: the amount of reagent."}
{"gene knocked down": "mIF2 (mitochondrial translation initiation factor 2)", "reagent no.": 1, "induced reporter light, run 1, well a": 1.07e5, "induced reporter light, run 1, well b": 99870, "control promoter light, run 1, well a": 1.41e5, "control promoter light, run 1, well b": 1.55e5, "uninduced reporter light, run 1, well a": 8780, "activity call": "inactive"}
{"gene knocked down": "betaCOP (Coat Protein (coatomer) beta)", "reagent no.": 1, "induced reporter light, run 1, well a": 51090, "induced reporter light, run 1, well b": 39645, "control promoter light, run 1, well a": 47455, "control promoter light, run 1, well b": 35135, "uninduced reporter light, run 1, well a": 4970, "activity call": "inactive"}
{"gene knocked down": "CG14958", "reagent no.": 1, "induced reporter light, run 1, well a": 93700, "induced reporter light, run 1, well b": 1.16e5, "control promoter light, run 1, well a": 1.51e5, "control promoter light, run 1, well b": 1.72e5, "uninduced reporter light, run 1, well a": 8320, "activity call": "inactive"}
{"gene knocked down": "CG6790", "reagent no.": 1, "induced reporter light, run 1, well a": 1.57e5, "induced reporter light, run 1, well b": 2.17e5, "control promoter light, run 1, well a": 1.11e5, "control promoter light, run 1, well b": 82280, "uninduced reporter light, run 1, well a": 13355, "activity call": "inactive"}
{"gene knocked down": "Ca-alpha1D (Ca[2+]-channel protein alpha[[1]] subunit D)", "reagent no.": 1, "induced reporter light, run 1, well a": 1.66e5, "induced reporter light, run 1, well b": 2.19e5, "control promoter light, run 1, well a": 1.36e5, "control promoter light, run 1, well b": 1.55e5, "uninduced reporter light, run 1, well a": 12495, "activity call": "inactive"}
{"gene knocked down": "hid (head involution defective)", "reagent no.": 1, "induced reporter light, run 1, well a": 1.97e5, "induced reporter light, run 1, well b": 1.79e5, "control promoter light, run 1, well a": 2.22e5, "control promoter light, run 1, well b": 2.37e5, "uninduced reporter light, run 1, well a": 13540, "activity call": "inactive"}
{"gene knocked down": "CG4477", "reagent no.": 1, "induced reporter light, run 1, well a": 3.23e5, "induced reporter light, run 1, well b": 2.82e5, "control promoter light, run 1, well a": 4.43e5, "control promoter light, run 1, well b": 3.34e5, "uninduced reporter light, run 1, well a": 14030, "activity call": "inactive"}
{"gene knocked down": "Tom (Twin of m4)", "reagent no.": 1, "induced reporter light, run 1, well a": 1.86e5, "induced reporter light, run 1, well b": 1.62e5, "control promoter light, run 1, well a": 1.06e5, "control promoter light, run 1, well b": 1.24e5, "uninduced reporter light, run 1, well a": 11495, "activity call": "inactive"}
{"gene knocked down": "CG9717", "reagent no.": 1, "induced reporter light, run 1, well a": 1.28e5, "induced reporter light, run 1, well b": 1.51e5, "control promoter light, run 1, well a": 1.87e5, "control promoter light, run 1, well b": 1.83e5, "uninduced reporter light, run 1, well a": 12265, "activity call": "inactive"}
{"gene knocked down": "CG42232", "reagent no.": 1, "induced reporter light, run 1, well a": 1.23e5, "induced reporter light, run 1, well b": 1.13e5, "control promoter light, run 1, well a": 1.38e5, "control promoter light, run 1, well b": 1.49e5, "uninduced reporter light, run 1, well a": 12605, "activity call": "inactive"}
{"gene knocked down": "CG42232", "reagent no.": 2, "induced reporter light, run 1, well a": 1.79e5, "induced reporter light, run 1, well b": 1.97e5, "control promoter light, run 1, well a": 2.19e5, "control promoter light, run 1, well b": 2.93e5, "uninduced reporter light, run 1, well a": 17950, "activity call": "inactive"}
{"gene knocked down": "Hsp23 (Heat shock protein 23)", "reagent no.": 1, "induced reporter light, run 1, well a": 93480, "induced reporter light, run 1, well b": 75830, "control promoter light, run 1, well a": 74370, "control promoter light, run 1, well b": 26780, "uninduced reporter light, run 1, well a": 9375, "activity call": "inactive"}
{"gene knocked down": "Hydr2 (alpha/beta hydrolase2)", "reagent no.": 1, "induced reporter light, run 1, well a": 1.77e5, "induced reporter light, run 1, well b": 2.14e5, "control promoter light, run 1, well a": 2.05e5, "control promoter light, run 1, well b": 1.81e5, "uninduced reporter light, run 1, well a": 19245, "activity call": "inactive"}
{"gene knocked down": "CG4287", "reagent no.": 1, "induced reporter light, run 1, well a": 1.77e5, "induced reporter light, run 1, well b": 1.96e5, "control promoter light, run 1, well a": 2.57e5, "control promoter light, run 1, well b": 2.86e5, "uninduced reporter light, run 1, well a": 12510, "activity call": "inactive"}
{"gene knocked down": "CG32652 (retired record)", "reagent no.": 1, "induced reporter light, run 1, well a": 87570, "induced reporter light, run 1, well b": 75580, "control promoter light, run 1, well a": 84220, "control promoter light, run 1, well b": 72155, "uninduced reporter light, run 1, well a": 5220, "activity call": "inactive"}
{"gene knocked down": "Sbp2 (SECIS-binding protein 2)", "reagent no.": 1, "induced reporter light, run 1, well a": 1.27e5, "induced reporter light, run 1, well b": 1.13e5, "control promoter light, run 1, well a": 76750, "control promoter light, run 1, well b": 19740, "uninduced reporter light, run 1, well a": 12335, "activity call": "active"}
{"gene knocked down": "Ercc1", "reagent no.": 1, "induced reporter light, run 1, well a": 1.17e5, "induced reporter light, run 1, well b": 1.54e5, "control promoter light, run 1, well a": 1.61e5, "control promoter light, run 1, well b": 1.20e5, "uninduced reporter light, run 1, well a": 9740, "activity call": "inactive"}
{"gene knocked down": "dpr5 (defective proboscis extension response 5)", "reagent no.": 1, "induced reporter light, run 1, well a": 71100, "induced reporter light, run 1, well b": 85395, "control promoter light, run 1, well a": 72530, "control promoter light, run 1, well b": 52330, "uninduced reporter light, run 1, well a": 4785, "activity call": "inactive"}
{"gene knocked down": "Lamp1", "reagent no.": 1, "induced reporter light, run 1, well a": 52340, "induced reporter light, run 1, well b": 42460, "control promoter light, run 1, well a": 41825, "control promoter light, run 1, well b": 55070, "uninduced reporter light, run 1, well a": 3290, "activity call": "inactive"}
{"gene knocked down": "CG6927", "reagent no.": 1, "induced reporter light, run 1, well a": 2.86e5, "induced reporter light, run 1, well b": 2.91e5, "control promoter light, run 1, well a": 4.22e5, "control promoter light, run 1, well b": 4.45e5, "uninduced reporter light, run 1, well a": 19270, "activity call": "inactive"}
{"gene knocked down": "Fas3 (Fasciclin 3)", "reagent no.": 1, "induced reporter light, run 1, well a": 1.00e5, "induced reporter light, run 1, well b": 81580, "control promoter light, run 1, well a": 1.02e5, "control promoter light, run 1, well b": 96185, "uninduced reporter light, run 1, well a": 8505, "activity call": "inactive"}
{"gene knocked down": "Fas3 (Fasciclin 3)", "reagent no.": 2, "induced reporter light, run 1, well a": 1.34e5, "induced reporter light, run 1, well b": 1.45e5, "control promoter light, run 1, well a": 1.56e5, "control promoter light, run 1, well b": 1.75e5, "uninduced reporter light, run 1, well a": 12738, "activity call": "inactive"}
{"gene knocked down": "kuk (kugelkern)", "reagent no.": 1, "induced reporter light, run 1, well a": 1.92e5, "induced reporter light, run 1, well b": 1.97e5, "control promoter light, run 1, well a": 2.36e5, "control promoter light, run 1, well b": 2.21e5, "uninduced reporter light, run 1, well a": 15080, "activity call": "inactive"}
{"gene knocked down": "CG15127", "reagent no.": 1, "induced reporter light, run 1, well a": 96085, "induced reporter light, run 1, well b": 1.03e5, "control promoter light, run 1, well a": 1.50e5, "control promoter light, run 1, well b": 1.24e5, "uninduced reporter light, run 1, well a": 9455, "activity call": "inactive"}
{"gene knocked down": "CG15127", "reagent no.": 2, "induced reporter light, run 1, well a": 60685, "induced reporter light, run 1, well b": 50515, "control promoter light, run 1, well a": 36310, "control promoter light, run 1, well b": 38880, "uninduced reporter light, run 1, well a": 5070, "activity call": "inactive"}
